# PubChem BioAssay AID686938, Drosophila RNAi Screening Center – 2013
# Aim: 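Knock-downs reducing store-operated calcium influx in Drosophila cells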 (primary screen)
# System: Drosophila S2R+ cells
# Reagents: long dsRNA against Drosophila genes, about 0.25 µg dsRNA per well, roughly 10,000 cells
# Duration: 5 days of knock-down before the calcium assay
# Challenge: thapsigargin (SERCA pump blocker) to empty calcium stores; entry signal taken 4 min after adding it
# Measurement: 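Duplicate raw fluo-4 intensities per well from a plate reader, at rest and four minutes after thapsigargin emptied calcium stores; entry-to-rest ratio filled for only some wells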
# Scale: calcium entry signal: higher = stronger calcium signal after store depletion; entry to resting ratio: higher = more calcium entry relative to resting level; resting calcium signal: higher = higher resting calcium signal
# Hit rule: 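Hit if the duplicate-averaged plate z-score for entry over resting signal is under −3; wells with weak total dye signal (Fmax z < −2) or more than 5 off-targets removed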
# Calls: active = strongly reduced calcium entry; inactive = no strong reduction
# The screen tested about 23,000 reagents; shown is a random part of those with a known target gene and a result. In the full data, 75 (0.33%) are marked active. 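Raw plate signals without normalisation; calls rest on plate z-scores that were not deposited; ratio present for only 364 wells.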 Entries without a mark were called inactive. Names joined by + are all predicted targets of the reagent. The record does not give: the dose of the treatment.
predicted target,DRSC id,"calcium entry signal, replicate 1 (fluorescence units)","calcium entry signal, replicate 2 (fluorescence units)",entry to resting ratio,"resting calcium signal, replicate 1 (fluorescence units)","resting calcium signal, replicate 2 (fluorescence units)"
Cnb,DRSC08569,4.05e7,3.82e7,,1.88e7,1.95e7
RPA2,DRSC03184,2.48e7,,,1.56e7,
CG31867,DRSC03338,4.19e7,6.16e7,,2.08e7,2.59e7
Dcps,DRSC12299,4.12e7,4.42e7,,1.82e7,2.05e7
cora,DRSC07597,3.56e7,3.03e7,,1.52e7,1.47e7
mthl8,DRSC08211,3.65e7,3.56e7,,1.64e7,1.74e7
mthl8,DRSC08311,3.59e7,4.47e7,,1.75e7,1.91e7
CG7024,DRSC18414,3.13e7,3.99e7,,1.57e7,2.05e7
tko,DRSC18844,4.99e7,5.56e7,2.4,2.12e7,1.99e7
CG13102 + Rcd-1r,DRSC03266,3.44e7,5.14e7,,1.71e7,2.04e7
Nipped-B,DRSC07815,3.41e7,4.30e7,,1.83e7,2.07e7
Lcp4,DRSC07458,4.53e7,4.09e7,,2.11e7,1.82e7
AlaRS-m,DRSC09660,5.28e7,5.05e7,,3.16e7,1.89e7
CG13847,DRSC14697,3.36e7,3.81e7,,1.80e7,2.00e7
CG13847,DRSC23172,6.93e7,3.29e7,,3.07e7,1.34e7
alphaTry,DRSC07577,2.63e7,3.78e7,,1.43e7,1.77e7
CG32694,DRSC17844,3.17e7,3.94e7,,1.66e7,1.81e7
CG32694,DRSC17855,4.44e7,5.36e7,,2.09e7,2.32e7
CG32694,DRSC22670,3.42e7,2.71e7,,1.70e7,1.10e7
CG17834,DRSC02637,4.86e7,,,2.22e7,
mei-41,DRSC20350,2.37e7,2.20e7,,1.26e7,9.96e6
Crag,DRSC18454,2.94e7,3.24e7,,1.45e7,1.54e7
kel,DRSC03554,4.26e7,3.78e7,,1.96e7,1.77e7
Gapvd1,DRSC19752,3.38e7,3.32e7,,1.64e7,1.46e7
Surf6,DRSC15588,3.26e7,2.43e7,,1.67e7,1.27e7
GstE4,DRSC06674,6.75e7,6.50e7,,2.72e7,2.94e7
Gr63a,DRSC08438,3.28e7,4.28e7,,1.69e7,1.95e7
CG5850,DRSC02905,4.51e7,,,2.20e7,
CG11883,DRSC06094,4.42e7,4.35e7,,1.93e7,2.06e7
TM4SF,DRSC04661,2.64e7,,,1.21e7,
CG14591,DRSC04868,4.67e7,5.17e7,,2.33e7,2.44e7
Prosbeta1,DRSC07159,1.80e7,2.18e7,,1.24e7,1.32e7
MED28,DRSC15721,2.87e7,2.94e7,,1.67e7,1.69e7
CG9287,DRSC03186,3.88e7,5.23e7,,1.83e7,2.28e7
CG9287,DRSC22790,3.74e7,4.03e7,,1.81e7,2.18e7
RpS25,DRSC16837,1.58e7,2.20e7,,1.08e7,1.42e7
betaNACtes3,DRSC20183,2.68e7,3.72e7,,1.45e7,1.69e7
eIF4E5,DRSC10975,3.24e7,4.37e7,,1.46e7,2.04e7
robl,DRSC07674,5.87e7,5.50e7,,2.57e7,2.72e7
CG16959,DRSC10230,3.72e7,4.31e7,,1.76e7,2.96e7
CG2269,DRSC06833,3.66e7,3.48e7,,1.53e7,1.60e7
CG31343,DRSC15887,2.94e7,2.54e7,,1.48e7,1.15e7
CG10444,DRSC05990,2.69e7,2.07e7,,1.72e7,1.32e7
srl,DRSC12340,3.41e7,5.32e7,,1.66e7,2.48e7
CG13793,DRSC02297,3.87e7,4.43e7,,1.52e7,1.91e7
cac,DRSC19743,4.64e7,5.54e7,,2.08e7,2.57e7
cac,DRSC20354,3.70e7,4.07e7,,1.73e7,1.83e7
ScpX,DRSC03430,5.12e7,,,2.33e7,
Lnpk,DRSC07254,5.82e7,3.95e7,,2.47e7,1.88e7
CG17744,DRSC10286,3.93e7,4.14e7,,1.82e7,1.91e7
CG3434,DRSC10365,5.18e7,4.34e7,,3.47e7,1.78e7
CG4911,DRSC10456,4.14e7,3.46e7,,3.16e7,1.54e7
tum,DRSC07575,3.32e7 (active),3.64e7,,2.11e7,2.35e7
AIMP3,DRSC04500,3.59e7,4.19e7,,1.85e7,1.82e7
NdufV3,DRSC19423,4.03e7,3.94e7,,1.94e7,1.67e7
CG42299 + CG42300,DRSC19680,2.52e7,3.51e7,,1.38e7,1.62e7
CG42299 + CG42300,DRSC19815,2.95e7,3.55e7,,1.51e7,1.61e7
CG15471,DRSC18054,2.60e7,4.24e7,,1.33e7,1.98e7

Reformatted: 3 of the entries above.
predicted target	DRSC id	calcium entry signal, replicate 1 (fluorescence units)	calcium entry signal, replicate 2 (fluorescence units)	entry to resting ratio	resting calcium signal, replicate 1 (fluorescence units)	resting calcium signal, replicate 2 (fluorescence units)
alphaTry	DRSC07577	2.63e7	3.78e7		1.43e7	1.77e7
CG32694	DRSC17844	3.17e7	3.94e7		1.66e7	1.81e7
CG32694	DRSC17855	4.44e7	5.36e7		2.09e7	2.32e7
